Data taken from PubChem BioAssay AID504467 (National Center for Advancing Translational Sciences (NCATS), 2011).
Screen size: about 330,000 compounds; about 7,700 (2.3%) were called active. Inconclusive results, whose numbers are uncertain, are shown with a selection of clear calls. Calls come from the whole dose curve; as a rule, active = well fitted inhibition curve with a large enough effect; inconclusive = small, poorly fitted or top-dose-only effect, or effect the other way; inactive = flat fitted curve, though single readings scatter. Potencies of inconclusive entries are doubtful fits and often do not repeat.

Assay: qHTS screen for small molecules that inhibit ELG1-dependent DNA repair in human embryonic kidney (HEK293T) cells expressing luciferase-tagged ELG1; note: nearly all actives have a fitted effect of over 55% in size
Settings: HEK293T ELG1-luciferase reporter, luminescence, 16 h, DNA damage induced by 5-fluorouridine; activity change, negative = inhibition: at 46.1 µM (top of the series)
Method in brief: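 Overnight (16 hr) co-exposure of 2,000 cells/well to 5-fluorouridine and compound at 37 °C preceded detection. Luciferase was quantified via ONE-Glo luminescence; loss of signal denotes inhibition.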
% is set by controls: 0 for no effect and ±100 for the full control effect; potency is the fitted concentration of half-maximal effect.

SMILES | activity change, negative = inhibition | Potency
O=C(OCCN1CCOCC1)c1ccc(Cl)cc1Cl | inactive: 7.35% | 
CCN(CC)S(=O)(=O)c1ccc(OC(C)C)c(NC(=O)C2=COCCO2)c1 |  | inconclusive: 14.6 µM [inhibitor, single point]
CC1CN(c2nc3c(c(=O)n(Cc4ccc(Cl)cc4)c(=O)n3C)n2C)CC(C)O1 (stereo not drawn) |  | inconclusive: 29.1 µM [inhibitor, single point]
C[C@H](NC(=O)c1nc[nH]c1C(=O)NCc1ccc(CNC(=O)OC(C)(C)C)cc1)c1ccccc1 |  | active: 18.3 µM
O=C(O)CCc1ccc(-c2ccccc2)n1NC(=O)c1sc2ccccc2c1Cl |  | inconclusive: 29.1 µM [activator, partial curve, poor fit]
CN(C)S(=O)(=O)c1cccc(NC(=O)c2ccc(OC(F)(F)F)cc2)c1 |  | inconclusive: 23.1 µM [inhibitor, partial curve]
COc1cc(O)c(C(C)=O)c(CC(=O)O)c1 | inactive: 11% | 
COc1ccc(S(=O)(=O)Nc2cccc3c2O[C@H](CN(C)S(=O)(=O)c2ccccc2)[C@@H](C)CN([C@H](C)CO)C3=O)cc1 | inactive: 5.78% | 
COc1cc(OC)cc(C(=O)NC(C)c2cnn(-c3ccccc3C)c2C)c1 (stereo not drawn) |  | inconclusive: 20.6 µM [inhibitor, single point]
Cc1ccc(-c2nn(-c3ccccc3)cc2C2CC(c3ccccc3)=NN2C(=O)CCC(=O)O)cc1 (stereo not drawn) |  | inconclusive: 16.4 µM [activator, single point]
Cc1cc(=O)[nH]c(N/N=C/c2ccccn2)n1 |  | inconclusive: 6.51 µM [inhibitor, single point]
COc1ccc(-c2nc(C#N)c(N3CCc4ccccc4C3)o2)cc1OC |  | inconclusive: 35.5 µM [inhibitor, single point]
CCN(CC(=O)Nc1ccccc1OC)CC(=O)Nc1ccccc1C(F)(F)F |  | inconclusive: 16.4 µM [inhibitor, partial curve]
O=C(CSc1nc2ccccc2[nH]1)Nc1ccc(F)cc1 | inactive: -4.95% | 
O=C(NCC1CCCO1)Nc1cccc(Cl)c1 (stereo not drawn) |  | inconclusive: 18.4 µM [activator, single point]
Clc1ccc(CNc2ccc(CNc3ncn[nH]3)cc2)c(Cl)c1 |  | inconclusive: 6.51 µM [inhibitor, partial curve, poor fit]
CCOc1ccc(OCC)c(NC(=O)CN2CCN(c3cccc(C)c3)CC2)c1 |  | inconclusive: 16.4 µM [inhibitor, partial curve]
Cc1nc2c(C(=O)N3CCN(c4ccccn4)CC3)cnn2c(C)c1Cc1cccc(Cl)c1 | inactive: 4.37% | 
S=C(NCc1ccccc1)NCc1cccc(CNC(=S)NCc2ccccc2)c1 | inactive: -4.17% | 
CC(=O)n1cc([C@@H]2C=C(C(=O)Nc3ccccc3)O[C@H](OCCCCO)C2)c2ccccc21 |  | inconclusive: 18.3 µM [inhibitor, single point]
COc1cc(OC)nc(Oc2ccccc2C(=O)Oc2ccc(C)cc2)n1 | inactive: -1.75% | 
C=CCn1c(SCC(=O)Nc2cc(C)c(Cl)cc2OC)nnc1-c1ccco1 |  | inconclusive: 29.1 µM [inhibitor, single point]
Cc1ccc(/C=N/NC(=O)c2c[nH]c3ccccc23)o1 | inactive: 7.25% | 
CCC(C)(C)NC(=O)C(c1ccc(C)cc1)N(CC1CCCO1)C(=O)c1csnn1 (stereo not drawn) | inactive: 14.7% | 
Cc1ccc2[nH]c(C)c(/C=C/c3cc[n+](C)cc3)c2c1 |  | active: 2.59 µM

3 entries from above, arranged by SMILES length, smallest number first:
SMILES | activity change, negative = inhibition | Potency
Cc1ccc(/C=N/NC(=O)c2c[nH]c3ccccc23)o1 | inactive: 7.25% | 
Cc1ccc2[nH]c(C)c(/C=C/c3cc[n+](C)cc3)c2c1 |  | active: 2.59 µM
CC(=O)n1cc([C@@H]2C=C(C(=O)Nc3ccccc3)O[C@H](OCCCCO)C2)c2ccccc21 |  | inconclusive: 18.3 µM [inhibitor, single point]

More results follow.

SMILES | activity change, negative = inhibition | Potency
COc1ccc(CC(=O)NNS(=O)(=O)c2cccc([N+](=O)[O-])c2)cc1OC | inactive: 8.61% | 
Cc1cc(Nc2ccccc2)c2c([N+](=O)[O-])ccc(C)c2n1 | inactive: -15% | 
O=C(NC(=S)Nc1cccc([N+](=O)[O-])c1)C1CCCCC1 | inactive: 14.8% | 
COc1ccccc1OCC(=O)NCCCn1ccnc1 | inactive: 12.9% | 
COCc1nnc(NC(=O)CSCc2ccccc2)s1 | inactive: 22.6% | 
CCN1C(=O)[C@H]2[C@H]3CN=C(SCc4ccc(Cl)cc4)N3[C@@](C)(C(=O)OC)[C@H]2C1=O | inactive: -1.91% | 
COC(=O)c1cc(NS(=O)(=O)c2ccc(N3CCCCCC3)c([N+](=O)[O-])c2)cc(C(=O)OC)c1 |  | inconclusive: 9.2 µM [inhibitor, partial curve, poor fit]
CCOc1ccc(OCC)c(NC(=O)CN2CCN(CC(=O)NC(C)C)CC2)c1 |  | inconclusive: 12.6 µM [inhibitor, partial curve, poor fit]
C/C(=N\NC(=S)NCc1ccccc1)c1ccccc1 |  | inconclusive: 18.4 µM [activator, single point]
O=C(COc1ccc(S(=O)(=O)N2CCCCC2)cc1)NCc1ccccn1 | inactive: -4.87% | 
FC(F)(F)c1cc(-c2ccccc2)nc(N2CCCCCC2)n1 | inactive: -3.65% | 
CCOc1ccc(OCCC(=O)OCC(=O)NC2CCCC2)cc1 |  | inconclusive: 35.5 µM [activator, partial curve, poor fit]
CCSc1nc2ccc(OC)cc2cc1C#N |  | inconclusive: 20.6 µM [activator, single point]
CSC1=N/C(=C\c2ccc(C)o2)C(=O)S1 | inactive: -5.67% | 
CC1(C)CC(=O)c2cc(OCC(=O)NCCCN3CCN(c4ccc(F)cc4)CC3)ccc2O1 |  | inconclusive: 25.9 µM [inhibitor, single point]
O=C(NCCc1ccccc1)C(=O)c1c[nH]c2ccccc12 |  | inconclusive: 20.6 µM [activator, partial curve]
Cc1nc(NCC2CCCO2)c2nnn(Cc3c(F)cccc3Cl)c2n1 (stereo not drawn) | inactive: -18.1% | 
O=C1C(=O)N(Cc2cccnc2)C(c2ccccn2)/C1=C(/O)c1ccccc1 (stereo not drawn) | inactive: -2.66% | 
Cc1noc(C)c1COc1ccc(CC(=O)NC2CCCCCC2)cc1 |  | inconclusive: 23.1 µM [inhibitor, single point]
CCNC(=O)c1nc[nH]c1C(=O)NCC |  | inconclusive: 14.6 µM [activator, partial curve, poor fit]
O=C1NCCN/C1=C\C(=O)c1ccc(F)cc1 |  | inconclusive: 18.3 µM [activator, partial curve]
Cc1ccc2oc(=O)c3cc(C(=O)NCCCN4CCc5ccccc5C4)sc3c2c1 | inactive: -0.13% | 
CCN(CC(=O)Nc1c(C(=O)OC)[nH]c2ccc(C)cc12)c1ccc2c(c1)OCO2 |  | active: 4.61 µM
CCOC(=O)c1c(-c2ccc(C)o2)csc1NC(=O)CSc1nncs1 |  | inconclusive: 35.5 µM [inhibitor, single point]
Cc1ccccc1-n1c(O)cc(=O)[nH]c1=S | inactive: 5.42% | 

SMILES | activity change, negative = inhibition | Potency
Cc1c(Cl)cccc1NC(=O)C1=COCCO1 |  | inconclusive: 11.6 µM [activator, partial curve]
CCN1C(=O)[C@H]2[C@@H](c3ccc(-c4ccc(F)cc4)cc3)N3CCCC[C@@]3(C(=O)OC)[C@H]2C1=O | inactive: -14.9% | 
CCOC(=O)C(C)n1cnc2c(cnn2-c2ccc(Cl)cc2)c1=O (stereo not drawn) |  | inconclusive: 32.6 µM [inhibitor, single point]
COc1ccc(C2C(C#N)=C(N)N3C(=C2C#N)Sc2ccccc23)cc1 (stereo not drawn) |  | inconclusive: 13 µM [activator, partial curve]
Clc1ccc(OCc2nn3c(C4CCCCC4)nnc3s2)cc1 | inactive: 4.05% | 
COc1ccc(CCC(=O)NCC(c2ccco2)N2CCc3ccccc32)cc1 (stereo not drawn) |  | inconclusive: 25.9 µM [inhibitor, single point]
O=C(CCc1ccc(F)c(F)c1)NC1CCCN(Cc2ccc(Cl)cc2)C1 (stereo not drawn) | inactive: -0.0538% | 
CC(C)=CCN1CCN(Cc2ccc(Sc3nncn3C)o2)CC1CCO (stereo not drawn) |  | inconclusive: 20.6 µM [activator, partial curve, poor fit]
Cc1cc(C)nc(NC(=O)c2ccc(C)o2)n1 |  | inconclusive: 32.6 µM [activator, partial curve, poor fit]
O=c1cc(-c2cccc(Br)c2)nc(-c2ccccc2F)o1 | inactive: 7.83% | 
O=C1NC(=O)[C@@H]2C3c4ccccc4C=CN3[C@H](C(=O)c3cccs3)[C@H]12 (stereo partly drawn) |  | inconclusive: 11.6 µM [activator, partial curve]
COc1ccc2ccccc2c1/C=N/NC(=O)c1sc(N)c(C#N)c1C | inactive: -6.17% | 
Cn1ccnc1SCC(=O)c1cccc(C(F)(F)F)c1 |  | inconclusive: 20.6 µM [activator, partial curve]
COc1ccc(C2CC(C)(c3ccc(OC)cc3OC)Nc3ccccc3N2)c(OC)c1 (stereo not drawn) |  | inconclusive: 5.17 µM [activator, partial curve]
COCC1CCN(C(=O)C2CCC(=O)N(Cc3cccc(F)c3)C2)CC1 (stereo not drawn) | inactive: 2.5% | 
CCOc1ccc(NC2=NCCC(=O)N2Cc2cccs2)cc1 |  | inconclusive: 29.1 µM [activator, partial curve, poor fit]
COc1ccc(S(=O)(=O)N2CCCOC2CNC(=O)C(=O)NCCc2ccco2)cc1 (stereo not drawn) | inactive: -12.3% | 
CCc1ccc(NC(=O)C(C)OC(=O)c2cccc(S(=O)(=O)N3CCc4ccccc4C3)c2)cc1 (stereo not drawn) |  | inconclusive: 2.91 µM [inhibitor, partial curve, poor fit]
Cc1ccc(CNC(=O)C2CC(c3ccccc3C(F)(F)F)=NO2)cc1 (stereo not drawn) |  | inconclusive: 18.3 µM [activator, partial curve, poor fit]
Cc1cc(C)cc(NC(=S)Nc2ccc(Cl)c(Cl)c2)c1 |  | inconclusive: 25.9 µM [inhibitor, partial curve, poor fit]
NC(=O)c1ccccc1NC(=O)Nc1ccc(F)c(Cl)c1 | inactive: 5.02% | 
Clc1ccc(CSc2nnc(-c3ccncc3)s2)cc1 |  | inconclusive: 6.51 µM [activator, single point]
COc1ccccc1CN(C)CC(=O)Nc1cccc(S(=O)(=O)N2CCCCC2)c1 |  | inconclusive: 23.1 µM [inhibitor, single point]

Whole records from above.
CCN1C(=O)[C@H]2[C@@H](c3ccc(-c4ccc(F)cc4)cc3)N3CCCC[C@@]3(C(=O)OC)[C@H]2C1=O reads activity change, negative = inhibition: inactive: -14.9%
Cc1ccc(CNC(=O)C2CC(c3ccccc3C(F)(F)F)=NO2)cc1 (stereo not drawn) reads Potency: inconclusive: 18.3 µM [activator, partial curve, poor fit]
Cn1ccnc1SCC(=O)c1cccc(C(F)(F)F)c1 reads Potency: inconclusive: 20.6 µM [activator, partial curve]
CCOc1ccc(NC2=NCCC(=O)N2Cc2cccs2)cc1 reads Potency: inconclusive: 29.1 µM [activator, partial curve, poor fit]
